## Cleaved PARP after 72 h of treatment

Data from the primary screen of doi:10.1371/journal.pone.0140310, rounded.

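The test systems are human melanoma cell lines, treated with a pair of drugs for 72 h and then stained and imaged. Each value is the cleaved-PARP-positive fraction of nuclei relative to DMSO-treated wells, in %, so that 100 equals the control and higher values mean more apoptosis. Concentrations were fixed for each drug; these are the higher of two levels. The file gives one value for each pair and line, without errors, so small differences may be noise. Basal and induced levels differ widely between cell lines.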
This is part of the screen, not chosen by result.
An entry leaves out what has no value listed here.

Every entry is a combination with SNS-314 at 0.004 µM: O=C(Nc1cccc(Cl)c1)Nc1ncc(CCNc2ncnc3ccsc23)s1

For O=c1[nH]nc(Sc2ncc([N+](=O)[O-])s2)n1-c1ccc2c(c1)OCCO2 at 1 µM the values were WM3526: 141; COLO 792: 121; MeWo: 106. With C[C@@H](N)c1ccc(C(=O)Nc2ccnc3[nH]ccc23)cc1 at 2 µM the screen read WM3526: 114; COLO 792: 206; MeWo: 484. Results for COc1ccc(C2=N[C@@H](c3ccc(Cl)cc3)[C@@H](c3ccc(Cl)cc3)N2C(=O)N2CCNC(=O)C2)c(OC(C)C)c1 at 0.5 µM are WM3526: 60.7; COLO 792: 80.0; MeWo: 154.

For COc1cc2ncnc(Nc3ccc(Oc4ccccc4)cc3)c2cc1OC at 10 µM the values were WM3526: 126; COLO 792: 180; A375: 57.3; MeWo: 32.5. COCC[n+]1c2c(n(Cc3cnccn3)c1C)C(=O)c1ccccc1C2=O at 0.002 µM gave WM3526: 3500; COLO 792: 324; MeWo: 686. Results for CC(C)CCN1c2nc(Nc3cc(F)c(O)c(F)c3)ncc2N(C)C(=O)C1C (stereo unspecified) at 1 µM are WM3526: 107; COLO 792: 185; A375: 102; MeWo: 241.

NC1(c2ccc(-c3nc4ccn5c(=O)[nH]nc5c4cc3-c3ccccc3)cc2)CCC1 at 2 µM gave WM3526: 57.8; COLO 792: 183; MeWo: 121. CC[C@]1(O)C[C@H]2CN(CCc3c([nH]c4ccccc34)[C@@](C(=O)OC)(c3cc4c(cc3OC)N(C=O)[C@H]3[C@@](O)(C(=O)OC)[C@H](OC(C)=O)[C@]5(CC)C=CCN6CC[C@]43[C@@H]65)C2)C1 at 0.0005 µM gave WM3526: 1400; COLO 792: 140; MeWo: 561. Results for CO[C@H]1C[C@@H]2CC[C@@H](C)[C@@](O)(O2)C(=O)C(=O)N2CCCC[C@H]2C(=O)O[C@H]([C@H](C)C[C@@H]2CC[C@@H](OCCO)[C@H](OC)C2)CC(=O)[C@H](C)/C=C(\C)[C@@H](O)[C@@H](OC)C(=O)[C@H](C)C[C@H](C)/C=C/C=C/C=C/1C at 0.1 µM are WM3526: 287; COLO 792: 295; MeWo: 82.0.

Results for O=C(Nc1ccccc1)c1cc([N+](=O)[O-])ccc1Cl at 10 µM are WM3526: 169; COLO 792: 110; A375: 73.9; MeWo: 195. With Oc1cc(-c2nc(-c3ccccc3)[nH]c2-c2ccncc2)ccc1Cl at 1 µM the screen read WM3526: 407; COLO 792: 106; A375: 277; MeWo: 107. O=C(Nc1cc(C(F)(F)F)cc(C(F)(F)F)c1)c1cc(Cl)ccc1O at 0.08 µM gave WM3526: 133; COLO 792: 160; MeWo: 162.

Results for Cc1nc(Nc2ncc(C(=O)Nc3c(C)cccc3Cl)s2)cc(N2CCN(CCO)CC2)n1 at 0.02 µM are WM3526: 117; COLO 792: 325; MeWo: 179. For CN(c1ncccc1CNc1nc(Nc2ccc3c(c2)CC(=O)N3)ncc1C(F)(F)F)S(C)(=O)=O at 0.4 µM the values were WM3526: 64.2; COLO 792: 307; MeWo: 173. Results for COc1cc([C@@H]2c3cc4c(cc3[C@@H](O[C@@H]3O[C@@H]5CO[C@@H](C)O[C@H]5[C@H](O)[C@H]3O)[C@H]3COC(=O)[C@H]23)OCO4)cc(OC)c1O at 0.1 µM are WM3526: 161; COLO 792: 161; MeWo: 170.

For Oc1nc(-c2ccc(C(F)(F)F)cc2)nc2c1CSCC2 at 10 µM the values were WM3526: 65.6; COLO 792: 332; A375: 48.7; MeWo: 139. Results for Cn1cc(/C=C2\C(=O)Nc3cccnc32)c2ccccc21 at 2 µM are WM3526: 51.8; COLO 792: 114; A375: 26.0; MeWo: 48.4. With Cn1c(=O)n(-c2ccc(C(C)(C)C#N)cc2)c2c3cc(-c4cnc5ccccc5c4)ccc3ncc21 at 0.02 µM the screen read WM3526: 169; COLO 792: 304; MeWo: 87.7.

Results for O=C(O)c1ccc2c(c1)nc(Nc1cccc(Cl)c1)c1ccncc12 at 2 µM are WM3526: 424; COLO 792: 396; MeWo: 759. With CCCCCCCCCCCCCCCCCCOP(=O)([O-])OC1CC[N+](C)(C)CC1 at 2 µM the screen read WM3526: 134; COLO 792: 145; MeWo: 97.9. With C[C@@H]1CCN(C(=O)CC#N)C[C@@H]1N(C)c1ncnc2[nH]ccc12 at 5 µM the screen read WM3526: 129; COLO 792: 85.3; MeWo: 129.

With O=C(O)C(=O)Nc1sc2c(c1C(=O)O)CCNC2 at 8.33 µM the screen read WM3526: 130; COLO 792: 152; A375: 37.6; MeWo: 65.4. With CC1(C)NC(=O)N(c2ccc([N+](=O)[O-])c(C(F)(F)F)c2)C1=O at 5 µM the screen read WM3526: 93.7; COLO 792: 201; MeWo: 121. With CN(C)S(=O)(=O)c1ccc2c(c1)/C(=C/c1cc3c([nH]1)CCCC3)C(=O)N2 at 2 µM the screen read WM3526: 244; COLO 792: 160; MeWo: 105.

Cc1cc([N+](=O)[O-])ccc1NS(=O)(=O)c1cc(Cl)ccc1Cl at 5 µM gave WM3526: 57.4; COLO 792: 243; A375: 143; MeWo: 136. With O=C(CCCCCCC(=O)Nc1ccccc1)NO at 0.4 µM the screen read WM3526: 193; COLO 792: 223; MeWo: 104. CC(=O)O[C@@]12CO[C@@H]1C[C@H](O)[C@@]1(C)C(=O)[C@H](O)C3=C(C)[C@@H](OC(=O)[C@H](O)[C@@H](NC(=O)OC(C)(C)C)c4ccccc4)C[C@@](O)([C@@H](OC(=O)c4ccccc4)[C@H]21)C3(C)C at 0.0005 µM gave WM3526: 244; COLO 792: 770; MeWo: 303.

Results for OCCn1cc(-c2cnc3nnn(Cc4ccc5ncccc5c4)c3n2)cn1 at 5 µM are WM3526: 136; COLO 792: 122; MeWo: 113. For N.N.[Cl][Pt][Cl] at 8 µM the values were WM3526: 89.0; COLO 792: 154; MeWo: 127. Cc1cc(Nc2cc(N3CCN(C)CC3)nc(Sc3ccc(NC(=O)C4CC4)cc3)n2)n[nH]1 at 0.03 µM gave WM3526: 80.3; COLO 792: 151; MeWo: 340.

For N#CC[C@H](C1CCCC1)n1cc(-c2ncnc3[nH]ccc23)cn1 at 5 µM the values were WM3526: 338; COLO 792: 361; MeWo: 94.9. Cc1cc(N2CCOCC2)cc2[nH]c(-c3c(NC[C@@H](O)c4cccc(Cl)c4)cc[nH]c3=O)nc12 at 1 µM gave WM3526: 74.7; COLO 792: 498; MeWo: 131. With Cn1c(Nc2ccc(C(F)(F)F)cc2)nc2cc(Oc3ccnc(-c4ncc(C(F)(F)F)[nH]4)c3)ccc21 at 0.4 µM the screen read WM3526: 956; COLO 792: 2000; MeWo: 141.

CC(C)C[C@H](NC(=O)[C@H](Cc1ccccc1)NC(=O)c1cnccn1)B(O)O at 0.005 µM gave WM3526: 2360; COLO 792: 545; MeWo: 4050.

The last 4 entries again:

{"second drug": "N#CC[C@H](C1CCCC1)n1cc(-c2ncnc3[nH]ccc23)cn1 at 5 µM", "WM3526": 338, "COLO 792": 361, "MeWo": 94.9}
{"second drug": "Cc1cc(N2CCOCC2)cc2[nH]c(-c3c(NC[C@@H](O)c4cccc(Cl)c4)cc[nH]c3=O)nc12 at 1 µM", "WM3526": 74.7, "COLO 792": 498, "MeWo": 131}
{"second drug": "Cn1c(Nc2ccc(C(F)(F)F)cc2)nc2cc(Oc3ccnc(-c4ncc(C(F)(F)F)[nH]4)c3)ccc21 at 0.4 µM", "WM3526": 956, "COLO 792": 2000, "MeWo": 141}
{"second drug": "CC(C)C[C@H](NC(=O)[C@H](Cc1ccccc1)NC(=O)c1cnccn1)B(O)O at 0.005 µM", "WM3526": 2360, "COLO 792": 545, "MeWo": 4050}